What all share (assay): co-IP
The target of one assay is T1, FLAG-VPS18 (UniProt Q9P253).
T1 sequence: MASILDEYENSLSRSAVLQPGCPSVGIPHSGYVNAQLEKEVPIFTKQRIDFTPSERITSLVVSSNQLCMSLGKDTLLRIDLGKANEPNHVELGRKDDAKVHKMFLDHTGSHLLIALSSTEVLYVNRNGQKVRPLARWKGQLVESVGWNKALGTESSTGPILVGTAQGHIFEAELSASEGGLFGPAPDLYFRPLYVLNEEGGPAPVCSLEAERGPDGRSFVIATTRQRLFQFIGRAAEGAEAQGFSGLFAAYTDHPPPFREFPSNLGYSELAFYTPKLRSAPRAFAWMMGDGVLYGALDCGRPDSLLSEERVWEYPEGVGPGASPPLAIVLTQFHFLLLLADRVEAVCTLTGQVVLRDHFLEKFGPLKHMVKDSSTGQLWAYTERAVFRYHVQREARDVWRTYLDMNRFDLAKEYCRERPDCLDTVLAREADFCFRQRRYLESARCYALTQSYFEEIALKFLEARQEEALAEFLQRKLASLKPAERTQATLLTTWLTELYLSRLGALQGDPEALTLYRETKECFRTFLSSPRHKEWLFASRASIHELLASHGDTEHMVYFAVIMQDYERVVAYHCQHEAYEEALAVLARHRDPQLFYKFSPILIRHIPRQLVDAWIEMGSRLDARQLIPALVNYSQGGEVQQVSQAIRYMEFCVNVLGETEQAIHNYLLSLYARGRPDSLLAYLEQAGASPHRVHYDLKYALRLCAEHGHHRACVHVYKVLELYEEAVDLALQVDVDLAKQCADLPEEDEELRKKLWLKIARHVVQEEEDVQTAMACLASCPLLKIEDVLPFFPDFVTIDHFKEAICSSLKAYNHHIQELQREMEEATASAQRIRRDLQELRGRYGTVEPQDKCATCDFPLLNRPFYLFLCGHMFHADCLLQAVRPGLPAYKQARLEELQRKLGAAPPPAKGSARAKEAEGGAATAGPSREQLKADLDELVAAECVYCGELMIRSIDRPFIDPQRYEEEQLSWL

By UniProt entry, the sequences of proteins in these tests, tags left out. Where a name states a change or a piece, a line headed by the entry shows the natural chain unless it says otherwise.
UniProt P51149, whole entry: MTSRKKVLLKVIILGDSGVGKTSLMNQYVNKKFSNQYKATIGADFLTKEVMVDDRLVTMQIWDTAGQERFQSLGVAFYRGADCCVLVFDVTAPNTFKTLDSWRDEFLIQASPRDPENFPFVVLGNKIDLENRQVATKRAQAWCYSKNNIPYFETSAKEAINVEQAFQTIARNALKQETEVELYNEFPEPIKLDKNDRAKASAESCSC

For another assay, the target named is T2, HA-VPS33A (UniProt Q96AX1).
T2 sequence: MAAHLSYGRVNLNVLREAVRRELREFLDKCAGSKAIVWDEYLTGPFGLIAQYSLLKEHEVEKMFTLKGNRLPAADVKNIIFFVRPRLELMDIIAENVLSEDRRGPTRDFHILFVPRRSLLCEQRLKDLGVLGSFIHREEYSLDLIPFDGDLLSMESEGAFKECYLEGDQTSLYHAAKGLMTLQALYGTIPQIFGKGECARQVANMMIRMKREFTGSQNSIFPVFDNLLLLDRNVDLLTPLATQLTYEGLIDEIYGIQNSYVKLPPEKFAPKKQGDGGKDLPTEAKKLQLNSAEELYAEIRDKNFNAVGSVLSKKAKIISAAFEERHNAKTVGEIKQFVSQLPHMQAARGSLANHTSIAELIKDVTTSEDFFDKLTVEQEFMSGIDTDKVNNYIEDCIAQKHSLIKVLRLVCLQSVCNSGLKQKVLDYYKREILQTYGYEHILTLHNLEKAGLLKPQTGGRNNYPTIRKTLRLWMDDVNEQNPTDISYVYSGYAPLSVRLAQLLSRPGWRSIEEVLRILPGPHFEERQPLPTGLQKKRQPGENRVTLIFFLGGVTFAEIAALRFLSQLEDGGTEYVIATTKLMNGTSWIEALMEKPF

In a further assay the target is FLAG-RAB7, P51149. Particulars: remark: other sources report otherwise.

Residue numbers refer to the chain shown, from its start. In names and notes the source's numbering stands. No constants are given. Whether binding was seen depends on the method and setting. Binding seen in cells or lysates may run through a third protein. Some results given as binding are weak or reduced against the parent protein; the word gives no strength. Tags and fused reporters may be left off the sequences shown.

B1: GFP-VPS41^S285P (protein, UniProt P49754-1 1-854)
chain: MAEAEEQETGSLEESTDESEEEESEEEPKLKYERLSNGVTEILQKDAASCMTVHDKFLALGTHYGKVYLLDVQGNITQKFDVSPVKINQISLDESGEHMGVCSEDGKVQVFGLYSGEEFHETFDCPIKIIAVHPHFVRSSCKQFVTGGKKLLLFERSWMNRWKSAVLHEGEGNIRSVKWRGHLIAWANNMGVKIFDIISKQRITNVPRDDISLRPDMYPCSLCWKDNVTLIIGWGTSVKVCSVKERHASEMRDLPSRYVEIVSQFETEFYISGLAPLCDQLVVLPYVKEISEKTEREYCARPRLDIIQPLSETCEEISSDALTVRGFQENECRDYHLEYSEGESLFYIVSPRDVVVAKERDQDDHIDWLLEKKKYEEALMAAEISQKNIKRHKILDIGLAYINHLVERGDYDIAARKCQKILGKNAALWEYEVYKFKEIGQLKAISPYLPRGDPVLKPLIYEMILHEFLESDYEGFATLIREWPGDLYNNSVIVQAVRDHLKKDSQNKTLLKTLAELYTYDKNYGNALEIYLTLRHKDVFQLIHKHNLFSSIKDKIVLLMDFDSEKAVDMLLDNEDKISIKKVVEELEDRPELQHVYLHKLFKRDHHKGQRYHEKQISLYAEYDRPNLLPFLRDSTHCPLEKALEICQQRNFVEETVYLLSRMGNSRSALKMIMEELHDVDKAIEFAKEQDDGELWEDLILYSIDKPPFITGLLNNIGTHVDPILLIHRIKEGMEIPNLRDSLVKILQDYNLQILLREGCKKILVADSLSLLKKMHRTQMKGVLVDEENICESCLSPILPSDAAKPFSVVVFHCRHMFHKECLPMPSMNSAAQFCNICSAKNRGPGSAILEMKK
Regarding B1, the binding entry with FLAG-VPS18 and with HA-VPS33A was “binds” in each case.

B2: VPS41^WT-APEX2-V5, P49754-1 1-854 (protein)
chain: B1 chain with P285S
In the case of B2, the binding entry with FLAG-RAB7, P51149 is “binds”.

(Values after publication doi:10.1101/2019.12.18.867333.)
